For this experiment, the target named is ESX-1 secretion-associated protein EspB (recombinant) (Mycobacterium tuberculosis H37Rv) (UniProt P9WJD9). In words: SPR; Biacore 8K, 25 °C; EspB immobilised covalently on a CM5 chip; analytes (Csm proteins, HtpG) at 25-3,200 nM, 30 μL/min for 2 min; fitted to a 1:1 mass transport model; both purified.

Sequences of proteins named here, by UniProt entry; tags and fusion partners are left off.
UniProt P9WJD9: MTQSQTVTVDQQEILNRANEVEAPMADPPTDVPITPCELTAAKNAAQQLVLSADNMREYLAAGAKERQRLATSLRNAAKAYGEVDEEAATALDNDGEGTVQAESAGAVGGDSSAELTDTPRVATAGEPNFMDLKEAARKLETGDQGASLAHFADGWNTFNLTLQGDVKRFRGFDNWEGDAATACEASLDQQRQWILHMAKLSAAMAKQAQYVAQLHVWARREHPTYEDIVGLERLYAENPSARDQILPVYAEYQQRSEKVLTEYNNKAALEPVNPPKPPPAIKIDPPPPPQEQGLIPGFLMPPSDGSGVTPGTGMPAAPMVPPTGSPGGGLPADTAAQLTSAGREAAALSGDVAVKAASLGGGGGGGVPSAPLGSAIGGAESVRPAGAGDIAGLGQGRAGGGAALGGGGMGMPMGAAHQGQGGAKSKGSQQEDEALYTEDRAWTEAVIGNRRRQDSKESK

These are yes or no findings as the source states them, for the method shown. Some binding calls cover weakened binding; strength is not graded here.

B1: MtbCsm2 (natural protein)
chain: MSVIQDDYVKQAEVIRGLPKKKNGFELTTTQLRVLLSLTAQLFDEAQQSANPTLPRQLKEKVQYLRVRFVYQSGREDAVKTFVRNAKLLEALEGIGDSRDGLLRFCRYMEALAAYKKYLDPKDK
For the molecule B1, the binding entry is “binds”.
